Here are results for 47 compounds from the supplement of paper PMC9744312.

Structures are written as SMILES. Counter-ions that a name gives are not always drawn. This is one part of the list. Single values of this set are uncertain.

The assay relates to Peyronie's disease tunica albuginea primary fibroblasts. Put plainly: inhibition of TGF-beta1-induced alpha-SMA expression (myofibroblast transformation), relative to TGF-beta1-only and untreated controls; higher = stronger inhibition of myofibroblast transformation. To be noted: 10 µM; TGF-beta1 10 ng/mL; 72 h.
With `NC(CO)(CO)CO` [Trometamol], the “inhibition of TGF-beta1-induced alpha-SMA expression” value (shortened to “inhibition”) was -11.2%.
As to `Clc1ccc(C(Cn2ccnc2)OCc2c(Cl)cccc2Cl)c(Cl)c1` (configuration not stated) [Isoconazole nitrate], the “inhibition” value stood at 3.03%.
Then `NCCC[C@H](N)C(=O)O` [L-Ornithine], with 6.82%.
Then `NC(=O)N1c2ccccc2C=Cc2ccccc21` [Carbamazepine], with -5.34%; and `Nc1nc(F)nc2c1ncn2[C@@H]1O[C@H](CO)[C@@H](O)[C@@H]1O` [Fludarabine], with 3.22%; and `CC[C@H]1OC(=O)[C@H](C)[C@@H](O[C@H]2C[C@@](C)(OC)[C@@H](O)[C@H](C)O2)[C@H](C)[C@@H](O[C@@H]2O[C@H](C)C[C@H](N(C)C)[C@H]2O)[C@](C)(O)C[C@@H](C)/C(=N\OCOCCOC)[C@H](C)[C@@H](O)[C@]1(C)O` [Roxithromycin], with 41.7%.
As to `CC(C)[C@H]1C(=O)N[C@@H](CCCN=C(N)N)C(=O)NCC(=O)N[C@@H](CC(=O)O)C(=O)N[C@H](Cc2ccccc2)C(=O)N1C`, the “inhibition” value is over 100%.
With `Nc1nc(=O)c2nc(CNc3ccc(C(=O)N[C@@H](CCC(=O)O)C(=O)O)cc3)cnc2[nH]1` [Folic acid], the “inhibition” value was -4.62%.
With `C=C1CC[C@H](O)C/C1=C/C=C1\CCC[C@]2(C)[C@@H]([C@H](C)CCCC(C)(C)O)CC[C@@H]12` [Calcifediol] the figure was 36.9%; with `COc1cc(S(=O)(=O)O)ccc1O` [Sulfogaiacol], 6.86%; with `CN1CC[C@H](c2c(O)cc(O)c3c(=O)cc(-c4ccccc4Cl)oc23)[C@H](O)C1` [Flavopiridol (Alvocidib)], over 100%.
With `CC(C)C(=O)OCC(=O)[C@@]12O[C@H](C3CCCCC3)O[C@@H]1C[C@H]1[C@@H]3CCC4=CC(=O)C=C[C@]4(C)[C@H]3[C@@H](O)C[C@@]12C` [Ciclesonide] the figure was -33.7%.
With `Nc1nc(Cl)nc2c1ncn2[C@@H]1O[C@H](CO)[C@@H](O)[C@@H]1F` [Clofarabine] the figure was 41.2%; with `O=C1CN2Cc3c(ccc(Cl)c3Cl)N=C2N1` [Anagrelide HCl], 13.1%; with `CC(C)NCC(O)COc1ccc(COCCOC(C)C)cc1` (configuration not stated) [Bisoprolol fumarate], 23.4%.
Turning to `CN(C)Cc1c(C(=O)NCCOc2ccc(C(=O)NO)cc2)oc2ccccc12`, the “inhibition” value worked out at 75.4%.
Then `CN1C2CCCC1CC(NC(=O)c1nn(C)c3ccccc13)C2` (configuration not stated) [Granisetron], with 35.9%; and `CN1C2CCCC1CC(NC(=O)c1nn(C)c3ccccc13)C2` (configuration not stated) [Granisetron HCl], with -3.34%; and `CC(C)N1CCN(c2ccc(OCC3COC(Cn4cncn4)(c4ccc(Cl)cc4Cl)O3)cc2)CC1` (configuration not stated) [Terconazole], with 15.7%.
For the compound `CCN(Cc1ccncc1)C(=O)C(CO)c1ccccc1` (configuration not stated) [Tropicamide], the “inhibition” value worked out at 21.5%.
For the compound `CCN(CC)CC#CCOC(=O)C(O)(c1ccccc1)C1CCCCC1` (configuration not stated) [Oxybutynin], the “inhibition” value was 26.6%.
Regarding `CCN(CC)CC#CCOC(=O)C(O)(c1ccccc1)C1CCCCC1` (configuration not stated) [Oxybutynin chloride], the “inhibition” value is 30.9%.
With `Cc1ncc([N+](=O)[O-])n1CCO` [Metronidazole], the “inhibition” value was 7.32%.
Then `COc1cc(CNC(=O)CCCCC=CC(C)C)ccc1O` [Capsaicin(Vanilloid)], with 55.2%; and `C=CC[C@@H]1/C=C(\C)C[C@H](C)C[C@H](OC)[C@H]2O[C@@](O)(C(=O)C(=O)N3CCCC[C@H]3C(=O)O[C@H](/C(C)=C/[C@@H]3CC[C@@H](O)[C@H](OC)C3)[C@H](C)[C@@H](O)CC1=O)[C@H](C)C[C@@H]2OC` [Tacrolimus (FK506)], with 12.6%; and `Cc1ccc(C(=O)c2cc(O)c(O)c([N+](=O)[O-])c2)cc1` [Tolcapone], with 21.1%.
With `O=C([O-])c1ccccc1O.[Na+]` [Sodium salicylate] the figure was 16%.
Then `COc1ccc2[nH]cc(CCNC(C)=O)c2c1` [Melatonin], with 28.2%; and `COc1cc2nc(N3CCN(C(=O)c4ccco4)CC3)nc(N)c2cc1OC` [Prazosin HCl], with 11.2%.
As for `NCCS(=O)(=O)O` [Taurine], the “inhibition” value stood at 37%.
With `CCCCS(=O)(=O)N[C@@H](Cc1ccc(OCCCCC2CCNCC2)cc1)C(=O)O` [Tirofiban Hydrochloride], the “inhibition” value was -18.3%.
Then `CCn1cc(C(=O)O)c(=O)c2cnc(N3CCNCC3)nc21` [Pipemidic acid], with -1.04%.
As for `CC(C)OC(=O)CCC/C=C\C[C@@H]1[C@@H](/C=C/C(F)(F)COc2ccccc2)[C@H](O)C[C@@H]1O` [Tafluprost], the “inhibition” value came out at 7.48%.
Then `COc1nc(C)nc(Cl)c1NC1=NCCN1` [Moxonidine], with 4.62%; and `Cc1ccc(NC(=O)c2ccc(CN3CCN(C)CC3)cc2)cc1Nc1nc(-c2cccnc2)cs1` [Masitinib (AB1010)], with -12.1%; and `Cc1ccc(S(=O)(=O)NC(=O)NN2CC3CCCC3C2)cc1` (configuration not stated) [Gliclazide], with -5.77%.
Then `CC1(C)S[C@@H]2[C@H](NC(=O)Cc3ccccc3)C(=O)N2[C@H]1C(=O)O.CCN(CC)CCOC(=O)c1ccc(N)cc1` [Penicillin G Procaine], with -1.17%; and `C#CCN(C)Cc1ccccc1` [Pargyline hydrochloride], with 13.7%; and `COc1ccc2cc(CCC(C)=O)ccc2c1` [Nabumetone], with -2.77%.
Regarding `C[C@H]1[C@@H](O)O[C@@H]2O[C@@]3(C)CC[C@H]4[C@H](C)CC[C@@H]1[C@@]24OO3` [Dihydroartemisinin (DHA)], the “inhibition” value was 53.3%.
Then `CCn1cc(C(=O)O)c(=O)c2ccc(C)nc21` [Nalidixic acid], with -7.86%.
Consider `O=C(CCCN1CC=C(n2c(=O)[nH]c3ccccc32)CC1)c1ccc(F)cc1` [Droperidol], for which the “inhibition” value turned out to be 27.8%.
With `Oc1c(I)cc(I)c2cccnc12` [Diiodohydroxyquinoline] the figure was over 100%; with `CC1(C)OC(=O)NC1=O` [5,5-Dimethyloxazolidine-2,4-dione], 35.1%.
Regarding `Cn1ncc(Cl)c1-c1cc(C(=O)N[C@H](CN)Cc2ccc(F)c(F)c2)oc1Cl`, the “inhibition” value is over 100%.
On to `CCC[C@H](N[C@@H](C)C(=O)N1[C@H](C(=O)O)C[C@@H]2CCCC[C@@H]21)C(=O)OCC` [Perindopril Erbumine], for which the “inhibition” value was 31.6%.
Consider `CCCC(=O)O[C@]1(C(=O)COC(C)=O)CC[C@H]2[C@@H]3C[C@H](F)C4=CC(=O)C=C[C@]4(C)[C@@]3(F)[C@@H](O)C[C@@]21C` [Difluprednate], for which the “inhibition” value stood at 48.7%.
